The values that follow are results of earlier work, collected in patent US7588892B2, “Reagent sets and gene signatures for renal tubule injury” (Entelos, Inc., priority 2004, dated 2009).

Structures are written as SMILES.

This data set deals with renal tubules. The conditions noted are these: rats, daily dose, route and vehicle of Table 2, day 5/7; absence of nephrotoxicity asserted from PDR and published literature; no histological injury on day 5/7; cited from earlier work.

In the case of `CC(C)c1c(C(=O)Nc2ccccc2)c(-c2ccccc2)c(-c2ccc(F)cc2)n1CC[C@@H](O)C[C@@H](O)CC(=O)O` [ATORVASTATIN], the “Class (nephrotoxic / non-nephrotoxic training label)” value is recorded as “Non-nephrotoxic”.
